Laboratory results: PubChem BioAssay AID504808 (Drosophila RNAi Screening Center, 2011)
The deposit covers about 21,000 reagents; below is an unselected part of those that have a named target and a result. In the full data, 18 (0.084%) got an active call. 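Raw counts without plate normalisation, one of two replicates; the ratio scores behind the calls were not deposited.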 A plus sign joins genes that one reagent is predicted to hit. Not stated in the record: the amount of reagent, the time to read-out.

Purpose: 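Chromatin factors that keep E2F targets switched off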 (primary screen)
System: Drosophila S2 cells
Knock-down reagent: long dsRNA against Drosophila genes
Detection: 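Firefly luciferase driven by E2F sites, normalised to Renilla luciferase on the same minimal promoter, measured by plate reader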
Reading the numbers: E2F firefly: higher = more E2F reporter activity; Renilla normaliser: higher = more normaliser reporter signal
Hit rule: 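Called active if the normalised E2F reporter went up by over 50%; the cutoff is arbitrary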

target | DRSC id | E2F firefly, rep 1 | Renilla normaliser, rep 1 | activity call
Cep97 | DRSC00637 | 86112 | 3989 | inactive
CG11030 | DRSC02120 | 1.42e5 | 5388 | inactive
CG31266 | DRSC15747 | 1.29e5 | 5896 | inactive
sev | DRSC20372 | 1.29e5 | 6468 | inactive
CG31693 | DRSC03674 | 1.14e5 | 4623 | inactive
CG34290 | DRSC13660 | 89115 | 2345 | inactive
CG14079 | DRSC10083 | 1.44e5 | 7163 | inactive
CG8728 | DRSC07251 | 3922 | 196 | inactive
Rab1 | DRSC16808 | 1.15e5 | 7933 | inactive
elm | DRSC12309 | 60150 | 3147 | inactive
Tmtc4 | DRSC15702 | 1.07e5 | 6882 | inactive
CG31556 (retired record) | DRSC12122 | 64419 | 3530 | inactive
ND-B14.5A | DRSC18500 | 1.21e5 | 5774 | inactive
CG13921 | DRSC08390 | 69336 | 3119 | inactive
Npl4 | DRSC15615 | 1703 | 932 | inactive
Npl4 | DRSC15616 | 1.12e5 | 6479 | inactive
CG33296 | DRSC00998 | 1.44e5 | 6581 | inactive
CG14132 | DRSC10136 | 1.26e5 | 6307 | inactive
Diap1 | DRSC11404 | 31008 | 2523 | inactive
CG17834 | DRSC02637 | 69520 | 3132 | inactive
CG5790 | DRSC02896 | 84820 | 3604 | inactive
Aasdh | DRSC03467 | 1.54e5 | 5317 | inactive
CG10949 | DRSC02112 | 70952 | 3297 | inactive
CG14537 | DRSC02395 | 1.43e5 | 4995 | inactive
CG3419 (retired record) | DRSC04368 | 1.26e5 | 5442 | inactive
CG3419 (retired record) | DRSC04369 | 1.09e5 | 4414 | inactive
CG2685 | DRSC18463 | 70067 | 6076 | inactive
dome | DRSC19583 | 1.64e5 | 5480 | inactive
Adh + Adhr | DRSC01862 | 84565 | 4086 | inactive
Adh + Adhr | DRSC01863 | 1.02e5 | 3851 | inactive
Topors | DRSC06531 | 65939 | 3305 | inactive
CG9117 | DRSC03141 | 1.44e5 | 4540 | inactive
Ama | DRSC12489 | 66641 | 3630 | inactive
mthl14 | DRSC07865 | 1.28e5 | 3834 | inactive
